This is an account of results in paper PMC3912138.

Amino acid sequences for entries named in this document (tags omitted).
UniProt P55884: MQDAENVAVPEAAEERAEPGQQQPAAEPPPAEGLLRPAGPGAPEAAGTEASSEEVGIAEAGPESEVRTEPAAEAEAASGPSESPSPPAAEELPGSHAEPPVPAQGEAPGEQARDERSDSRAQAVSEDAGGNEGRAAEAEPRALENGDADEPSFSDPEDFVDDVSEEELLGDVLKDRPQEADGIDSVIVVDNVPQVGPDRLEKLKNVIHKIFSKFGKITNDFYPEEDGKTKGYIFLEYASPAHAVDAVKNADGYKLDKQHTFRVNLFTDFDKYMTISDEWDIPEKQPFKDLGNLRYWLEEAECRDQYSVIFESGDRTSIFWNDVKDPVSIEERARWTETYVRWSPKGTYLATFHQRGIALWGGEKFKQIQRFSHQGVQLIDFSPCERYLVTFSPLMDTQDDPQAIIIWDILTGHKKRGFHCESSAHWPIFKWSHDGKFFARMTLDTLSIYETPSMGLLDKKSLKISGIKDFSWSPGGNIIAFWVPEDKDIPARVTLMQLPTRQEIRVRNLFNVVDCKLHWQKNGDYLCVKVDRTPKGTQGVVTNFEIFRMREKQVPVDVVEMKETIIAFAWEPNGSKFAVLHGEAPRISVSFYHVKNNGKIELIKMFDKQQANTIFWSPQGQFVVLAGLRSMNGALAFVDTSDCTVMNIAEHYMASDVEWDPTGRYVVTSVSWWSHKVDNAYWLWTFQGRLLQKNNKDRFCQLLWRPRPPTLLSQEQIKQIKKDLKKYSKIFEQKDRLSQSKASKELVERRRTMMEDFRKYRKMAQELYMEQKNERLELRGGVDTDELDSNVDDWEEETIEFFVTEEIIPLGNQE

Numbering of substitutions follows the chain as printed. No constants are given. Whether binding was seen depends on the method and setting. In cells and extracts the contact can be indirect. Some binding calls cover weakened binding; strength is not graded here. Sequences can lack the tags named with a protein.

Experiment [1] deals with T1, CERKL-C125W-Flag (pathological point mutant of CERKLa) (human) (UniProt Q49MI3).
T1 sequence: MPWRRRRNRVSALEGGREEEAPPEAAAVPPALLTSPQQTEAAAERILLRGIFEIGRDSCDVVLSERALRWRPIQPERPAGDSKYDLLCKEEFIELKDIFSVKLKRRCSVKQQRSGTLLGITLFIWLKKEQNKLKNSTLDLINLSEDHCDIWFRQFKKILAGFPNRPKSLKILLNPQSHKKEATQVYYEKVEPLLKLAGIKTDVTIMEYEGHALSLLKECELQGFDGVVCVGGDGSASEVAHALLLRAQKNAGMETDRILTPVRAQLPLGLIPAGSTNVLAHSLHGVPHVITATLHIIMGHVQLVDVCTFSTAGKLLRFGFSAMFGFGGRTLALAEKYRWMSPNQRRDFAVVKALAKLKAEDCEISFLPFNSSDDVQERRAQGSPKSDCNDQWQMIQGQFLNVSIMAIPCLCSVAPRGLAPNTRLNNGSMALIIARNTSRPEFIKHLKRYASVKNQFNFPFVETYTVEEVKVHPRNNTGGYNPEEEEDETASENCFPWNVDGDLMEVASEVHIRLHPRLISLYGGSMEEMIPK
The experiment in a line: co-IP; Flag immunoprecipitation (M2 Flag beads, 1 h, 4°C; lysis buffer 1% Triton X-100, 150 mM NaCl, 20 mM Tris pH 7.4) from lysates of transfected HEK 293T cells, Western blot of endogenous partners; in some panels cells treated with cycloheximide or colchicine, and lysates treated or not with RNase A (100 µg/mL) at 150, 450 or 600 mM NaCl. A general note: A western blot detects proteins with antibodies after separation by electrophoresis.

Experiment [2] concerns the target T2, CERKL-Flag (CERKLa, full length CERKL isoform of 532 amino acids, wild type) (human) (UniProt Q49MI3).
T2 sequence: T1 sequence with W125C
The experiment is described as above.

Experiment [3] deals with T2, CERKL-Flag (CERKLa, full length CERKL isoform of 532 amino acids, wild type) (human). Kind of experiment: co-IP; Flag immunoprecipitation (anti-Flag M2 affinity beads) from a cytoskeletal fraction isolated from HEK-293T cells transfected with CERKL-WT; fractions treated with 15 mM EDTA or 100 µg/ml RNase A at 150, 450 and 600 mM NaCl; Western blot.

Regarding “eIF3B (translation initiation factor eIF3B) (from UniProt P55884 1-814)”, the figures for the binding result in experiment [1], in experiment [2] and in experiment [3] were “no binding”, “binds” and “binds”, respectively.
